According to patent US20090068113A1, “AMPHIPHILIC SQUARAINE DYES, PROCESS FOR PREPARATION THEREOF AND USE THEREOF” (COUNCIL OF SCIENTIFIC AND INDUSTRIAL RESEARCH, priority 2005, published 2009):
Some results were stated once for a whole list of compounds, not compound by compound. Some compounds share one range, which may span the group rather than tell each member.

Tests used:
[1] = Absorption, emission and fluorescence quantum yield in aqueous and alcoholic solvents; assay type: physicochemical; details: summary of advantages; for emission quantum yields: aqueous media
Excerpt: The absorption and emission maxima, and fluorescence quantum yields of these dyes in aqueous and alcoholic solvents are listed in Table 1. The long wavelength absorption and emission maxima and good fluorescence quantum yields in aqueous media make these dyes ideal candidates for application as fluorescence probes.

[2] = Summary of photophysical properties in the presence of membrane mimics and drug carriers; assay type: physicochemical
Excerpt: The main advantages of these systems include: • 1. Squaraines dyes represented by formulae 1, 2 and 3 are novel and pure single substances. • 2. Their synthetic methodology is very economical. • 3. […] They can be used for photodynamic applications such as sterilization of fluids etc. • 7. The squaraine-based dyes can be used as near infrared fluorescent probes for protein labeling. • 8. The squaraine dyes of the general formula 1 can be used as near infrared fluorescent labels in immunoassays. • 9. They can be used for the detection of biologically important metal ions under physiological conditions. • 10. These novel dyes can be used as near-infrared fluorescence sensors in biological, biochemical and industrial applications.

Row | emission quantum yields [1] | absorption in the near-infrared region [1] | fluorescence emission in the near-infrared region [1] | ΦF [2] | Structure (SMILES)
1 | 0.015-0.03 | 600-700 nm | 620-720 nm | 0.09-0.2 | COCCOCCOCCOCCN(C)c1ccc(C2=C([O-])C(=C3C=CC(=[N+](C)CCOCCOCCOCCOC)C=C3)C2=O)cc1 [Formula 1]
2 | 0.015-0.03 | 600-700 nm | 620-720 nm | 0.09-0.2 | COCCOCCOCCOCCN(CCOCCOCCOCCOC)c1ccc(C2=C([O-])C(=C3C=CC(=[N+](CCOCCOCCOCCOC)CCOCCOCCOCCOC)C=C3)C2=O)cc1 [Formula 2]
3 | 0.015-0.03 | 600-700 nm | 620-720 nm | 0.09-0.2 | CN(CCCC(=O)O)c1ccc(C2=C([O-])C(=C3C=CC(=[N+](C)CCCC(=O)O)C=C3)C2=O)cc1 [Formula 3]
